# PubChem BioAssay (EPA / NIEHS)
# Amino acid sequences for entries named in this document (tags omitted). A change or cut given only in a name is not applied to a line headed by its entry.
# UniProt O15379: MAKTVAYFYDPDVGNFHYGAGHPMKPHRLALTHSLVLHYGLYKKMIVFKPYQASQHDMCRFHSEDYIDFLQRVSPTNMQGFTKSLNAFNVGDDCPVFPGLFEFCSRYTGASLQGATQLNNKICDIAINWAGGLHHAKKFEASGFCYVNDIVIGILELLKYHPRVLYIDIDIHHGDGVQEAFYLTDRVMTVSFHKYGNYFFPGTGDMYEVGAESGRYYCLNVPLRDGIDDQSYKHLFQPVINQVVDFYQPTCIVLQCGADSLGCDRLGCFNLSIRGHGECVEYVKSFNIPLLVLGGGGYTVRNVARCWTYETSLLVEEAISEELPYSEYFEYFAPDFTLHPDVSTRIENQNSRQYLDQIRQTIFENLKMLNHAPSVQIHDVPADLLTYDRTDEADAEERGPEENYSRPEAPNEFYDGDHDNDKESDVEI
# UniProt P49137, whole entry, looked up: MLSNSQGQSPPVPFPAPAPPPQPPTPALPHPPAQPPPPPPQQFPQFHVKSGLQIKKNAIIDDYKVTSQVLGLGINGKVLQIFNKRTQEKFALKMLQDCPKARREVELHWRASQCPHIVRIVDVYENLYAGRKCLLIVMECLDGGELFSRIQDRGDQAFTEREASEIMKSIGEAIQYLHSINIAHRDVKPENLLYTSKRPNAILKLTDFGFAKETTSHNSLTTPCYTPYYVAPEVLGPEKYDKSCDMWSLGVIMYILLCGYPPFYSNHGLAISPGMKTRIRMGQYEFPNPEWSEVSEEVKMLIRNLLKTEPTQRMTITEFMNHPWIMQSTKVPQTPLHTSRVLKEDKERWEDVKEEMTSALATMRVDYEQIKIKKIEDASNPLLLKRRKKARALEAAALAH
# UniProt P29074: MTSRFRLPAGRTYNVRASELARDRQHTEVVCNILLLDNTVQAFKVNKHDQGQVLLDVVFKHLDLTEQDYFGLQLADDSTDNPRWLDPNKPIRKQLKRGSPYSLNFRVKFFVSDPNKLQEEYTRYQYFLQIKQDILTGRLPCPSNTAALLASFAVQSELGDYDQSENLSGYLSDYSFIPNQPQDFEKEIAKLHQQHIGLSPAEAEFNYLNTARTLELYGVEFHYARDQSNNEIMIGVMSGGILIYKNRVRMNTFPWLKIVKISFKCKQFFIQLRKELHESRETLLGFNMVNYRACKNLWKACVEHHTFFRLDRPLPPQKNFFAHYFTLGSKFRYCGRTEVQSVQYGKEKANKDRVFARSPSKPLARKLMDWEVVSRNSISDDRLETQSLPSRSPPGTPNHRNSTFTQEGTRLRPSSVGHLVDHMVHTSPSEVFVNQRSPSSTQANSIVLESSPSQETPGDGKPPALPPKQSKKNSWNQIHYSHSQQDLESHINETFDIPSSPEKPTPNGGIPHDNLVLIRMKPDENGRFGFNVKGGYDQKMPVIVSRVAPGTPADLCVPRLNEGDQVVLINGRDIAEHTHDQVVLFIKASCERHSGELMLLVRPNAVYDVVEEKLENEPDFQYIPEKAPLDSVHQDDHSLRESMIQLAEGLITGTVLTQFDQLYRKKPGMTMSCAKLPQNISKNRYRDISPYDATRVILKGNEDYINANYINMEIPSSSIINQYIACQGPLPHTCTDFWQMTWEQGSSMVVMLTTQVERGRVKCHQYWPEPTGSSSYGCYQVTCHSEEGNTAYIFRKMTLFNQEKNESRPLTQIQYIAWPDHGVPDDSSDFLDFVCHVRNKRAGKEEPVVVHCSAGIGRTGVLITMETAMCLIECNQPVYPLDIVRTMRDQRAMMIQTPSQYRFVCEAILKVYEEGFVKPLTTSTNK
# UniProt P10586, whole entry, looked up: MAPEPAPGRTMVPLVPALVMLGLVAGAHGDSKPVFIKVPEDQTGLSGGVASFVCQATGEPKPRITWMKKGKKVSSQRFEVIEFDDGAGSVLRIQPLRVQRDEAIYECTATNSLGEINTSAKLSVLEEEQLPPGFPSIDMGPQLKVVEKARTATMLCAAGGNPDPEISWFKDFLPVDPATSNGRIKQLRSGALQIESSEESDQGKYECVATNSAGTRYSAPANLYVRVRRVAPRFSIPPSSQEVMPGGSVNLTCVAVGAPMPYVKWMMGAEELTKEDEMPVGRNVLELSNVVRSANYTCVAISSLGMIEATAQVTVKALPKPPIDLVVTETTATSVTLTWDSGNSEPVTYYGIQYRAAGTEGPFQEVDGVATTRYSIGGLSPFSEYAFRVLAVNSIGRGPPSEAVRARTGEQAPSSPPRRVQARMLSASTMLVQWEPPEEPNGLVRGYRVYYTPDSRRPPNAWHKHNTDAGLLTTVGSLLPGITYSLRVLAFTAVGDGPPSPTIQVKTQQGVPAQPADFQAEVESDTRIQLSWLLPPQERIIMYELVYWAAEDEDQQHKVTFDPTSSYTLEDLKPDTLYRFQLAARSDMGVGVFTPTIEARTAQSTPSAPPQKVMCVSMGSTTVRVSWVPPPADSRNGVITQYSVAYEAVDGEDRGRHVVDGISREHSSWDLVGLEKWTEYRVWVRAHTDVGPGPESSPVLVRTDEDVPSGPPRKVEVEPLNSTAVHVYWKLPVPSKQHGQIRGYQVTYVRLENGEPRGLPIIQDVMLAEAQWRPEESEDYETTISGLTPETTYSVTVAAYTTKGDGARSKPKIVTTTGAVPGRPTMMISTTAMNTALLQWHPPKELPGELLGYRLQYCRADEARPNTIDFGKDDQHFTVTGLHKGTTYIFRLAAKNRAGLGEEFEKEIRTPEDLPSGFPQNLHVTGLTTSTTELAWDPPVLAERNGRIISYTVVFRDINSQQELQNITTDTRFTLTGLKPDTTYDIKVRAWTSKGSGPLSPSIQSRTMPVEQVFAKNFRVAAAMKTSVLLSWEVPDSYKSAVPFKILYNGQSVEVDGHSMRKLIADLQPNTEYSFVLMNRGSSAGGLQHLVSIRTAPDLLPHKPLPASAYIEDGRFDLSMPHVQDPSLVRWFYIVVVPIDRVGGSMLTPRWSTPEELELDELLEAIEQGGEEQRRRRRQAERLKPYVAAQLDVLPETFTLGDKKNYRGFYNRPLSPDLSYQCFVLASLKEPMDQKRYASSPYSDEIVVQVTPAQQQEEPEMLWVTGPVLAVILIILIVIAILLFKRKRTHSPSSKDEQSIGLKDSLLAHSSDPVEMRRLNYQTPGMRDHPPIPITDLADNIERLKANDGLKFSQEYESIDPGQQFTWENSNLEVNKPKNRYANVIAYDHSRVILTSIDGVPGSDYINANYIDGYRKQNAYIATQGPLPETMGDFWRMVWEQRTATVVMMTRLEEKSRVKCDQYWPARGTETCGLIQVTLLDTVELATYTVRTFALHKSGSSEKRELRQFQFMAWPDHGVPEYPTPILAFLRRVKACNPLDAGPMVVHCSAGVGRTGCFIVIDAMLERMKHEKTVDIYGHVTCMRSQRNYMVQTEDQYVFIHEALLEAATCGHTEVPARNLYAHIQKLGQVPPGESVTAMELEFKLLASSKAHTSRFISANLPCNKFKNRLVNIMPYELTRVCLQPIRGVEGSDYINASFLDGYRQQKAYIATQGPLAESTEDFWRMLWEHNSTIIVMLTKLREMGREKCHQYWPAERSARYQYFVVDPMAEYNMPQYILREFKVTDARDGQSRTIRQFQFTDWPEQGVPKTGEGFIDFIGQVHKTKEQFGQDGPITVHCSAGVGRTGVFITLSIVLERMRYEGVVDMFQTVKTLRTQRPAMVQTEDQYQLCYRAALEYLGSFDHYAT
# UniProt P10275: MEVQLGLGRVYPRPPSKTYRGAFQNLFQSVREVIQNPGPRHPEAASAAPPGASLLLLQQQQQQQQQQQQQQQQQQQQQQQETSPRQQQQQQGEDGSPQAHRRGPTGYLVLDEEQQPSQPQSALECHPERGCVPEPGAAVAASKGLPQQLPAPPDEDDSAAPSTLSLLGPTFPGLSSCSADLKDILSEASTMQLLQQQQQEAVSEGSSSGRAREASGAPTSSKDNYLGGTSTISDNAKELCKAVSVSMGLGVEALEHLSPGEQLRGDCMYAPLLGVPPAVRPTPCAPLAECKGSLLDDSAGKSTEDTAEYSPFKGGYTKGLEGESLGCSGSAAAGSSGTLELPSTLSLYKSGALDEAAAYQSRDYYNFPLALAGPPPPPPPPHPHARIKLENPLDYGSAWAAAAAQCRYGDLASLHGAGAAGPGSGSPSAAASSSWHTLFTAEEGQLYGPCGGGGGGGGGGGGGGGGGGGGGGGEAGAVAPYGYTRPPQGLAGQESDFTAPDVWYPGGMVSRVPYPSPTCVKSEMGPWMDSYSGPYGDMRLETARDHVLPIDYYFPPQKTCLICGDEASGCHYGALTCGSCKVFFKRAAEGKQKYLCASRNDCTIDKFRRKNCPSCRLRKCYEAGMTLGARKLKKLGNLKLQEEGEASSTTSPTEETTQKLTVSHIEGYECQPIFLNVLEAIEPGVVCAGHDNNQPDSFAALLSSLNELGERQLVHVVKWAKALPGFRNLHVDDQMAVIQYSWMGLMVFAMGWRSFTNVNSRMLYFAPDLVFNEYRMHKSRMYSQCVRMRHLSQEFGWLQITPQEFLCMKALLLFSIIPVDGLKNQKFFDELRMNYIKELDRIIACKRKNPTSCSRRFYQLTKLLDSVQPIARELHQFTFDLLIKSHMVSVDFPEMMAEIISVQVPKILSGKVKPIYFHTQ
# UniProt P06241, whole entry, looked up: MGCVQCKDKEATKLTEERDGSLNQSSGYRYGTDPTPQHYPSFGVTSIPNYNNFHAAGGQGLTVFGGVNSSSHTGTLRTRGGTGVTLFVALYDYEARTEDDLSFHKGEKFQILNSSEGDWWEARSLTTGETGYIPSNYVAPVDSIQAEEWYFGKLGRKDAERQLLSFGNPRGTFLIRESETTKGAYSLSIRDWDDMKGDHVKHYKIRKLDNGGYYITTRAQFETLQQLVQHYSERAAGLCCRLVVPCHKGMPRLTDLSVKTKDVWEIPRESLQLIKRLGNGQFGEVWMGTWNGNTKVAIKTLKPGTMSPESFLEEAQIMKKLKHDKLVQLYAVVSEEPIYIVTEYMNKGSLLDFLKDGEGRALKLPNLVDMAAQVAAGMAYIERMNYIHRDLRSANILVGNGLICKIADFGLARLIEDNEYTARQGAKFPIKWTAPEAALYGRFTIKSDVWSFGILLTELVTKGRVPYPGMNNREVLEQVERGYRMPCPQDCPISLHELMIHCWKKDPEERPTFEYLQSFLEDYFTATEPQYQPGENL
# UniProt P03372, whole entry, looked up: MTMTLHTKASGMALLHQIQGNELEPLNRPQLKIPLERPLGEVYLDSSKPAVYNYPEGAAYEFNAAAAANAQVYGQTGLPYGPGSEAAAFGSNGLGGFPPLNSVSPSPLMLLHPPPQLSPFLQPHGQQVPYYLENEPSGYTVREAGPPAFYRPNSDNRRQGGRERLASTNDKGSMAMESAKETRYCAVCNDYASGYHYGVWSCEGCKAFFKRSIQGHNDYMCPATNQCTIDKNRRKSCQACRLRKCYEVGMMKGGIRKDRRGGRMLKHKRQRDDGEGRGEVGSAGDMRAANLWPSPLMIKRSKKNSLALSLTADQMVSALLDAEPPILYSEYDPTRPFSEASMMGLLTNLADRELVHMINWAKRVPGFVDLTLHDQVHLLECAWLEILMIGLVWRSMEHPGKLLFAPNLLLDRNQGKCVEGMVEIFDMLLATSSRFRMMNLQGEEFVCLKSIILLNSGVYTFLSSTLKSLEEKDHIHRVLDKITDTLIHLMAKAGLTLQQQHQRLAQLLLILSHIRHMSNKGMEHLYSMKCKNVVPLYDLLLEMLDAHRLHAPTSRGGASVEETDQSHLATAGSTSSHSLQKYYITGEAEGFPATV
# UniProt P33261, whole entry, looked up: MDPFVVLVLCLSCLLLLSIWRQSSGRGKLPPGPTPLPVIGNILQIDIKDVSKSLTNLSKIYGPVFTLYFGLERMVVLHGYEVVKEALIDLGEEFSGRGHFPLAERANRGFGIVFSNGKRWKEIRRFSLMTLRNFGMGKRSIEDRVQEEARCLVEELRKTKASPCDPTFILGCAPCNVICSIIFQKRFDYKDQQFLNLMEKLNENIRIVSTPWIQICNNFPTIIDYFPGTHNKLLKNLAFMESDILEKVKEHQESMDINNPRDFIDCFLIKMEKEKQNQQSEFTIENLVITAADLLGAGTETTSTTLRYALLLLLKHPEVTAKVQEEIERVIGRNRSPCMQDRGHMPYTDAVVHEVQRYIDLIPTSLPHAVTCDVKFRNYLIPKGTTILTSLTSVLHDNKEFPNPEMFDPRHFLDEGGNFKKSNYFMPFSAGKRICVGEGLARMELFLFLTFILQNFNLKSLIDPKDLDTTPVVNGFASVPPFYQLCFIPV
# The shares of active, inactive and inconclusive entries below differ from those in the screen. For some assays here: A potency beside an inconclusive call is a rough fit, not a confirmed value. Calls of active or inactive are those of the source. Rule for the calls: active = hit-call score of the fitted dose curve at least 0.9, where 1 is the maximum; inconclusive = response in the unintended direction; inactive = score below 0.9.
# Experiments:
# [1] = target: Histone deacetylase 3 (Homo sapiens) (UniProt O15379); test: NVS_ENZ_hHDAC3: NovaScreen (NVS) Enzymatic Assay for human Histone Deacetylase 3 (HDAC3) (AID 2283163)
# Summary of the method: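 Recombinant human HDAC3 with fluorescent substrate, 1 h after dosing; product separated from substrate by electrophoretic mobility shift and read by fluorescence. Primary screen at 25 uM in duplicate; actives (e.g. ≥30% inhibition) retested in concentration-response up to 50 uM.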
# [2] = target: human MAP Kinase-Activated Protein Kinase 2 (MAPKAPK2), MAPKAPK2 (gene 9261) (UniProt P49137); test: NVS_ENZ_hMAPKAPK2: NovaScreen (NVS) Enzymatic Assay for human MAP Kinase-Activated Protein Kinase 2 (MAPKAPK2) (AID 2283178)
# Summary of the method: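 Cell-free recombinant human MAPKAPK2 activity measured by fluorescence with electrophoretic mobility shift separation of substrate and product, 1 hr after dosing. Loss of signal versus DMSO; primary screen at 25 uM, concentration-response up to 50 uM.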
# [3] = target: human Protein Tyrosine Phosphatase Non-receptor Type 4 (PTPN4), PTPN4 (gene 5775) (UniProt P29074); test: NVS_ENZ_hPTPN4: NovaScreen (NVS) Enzymatic Assay for human Protein Tyrosine Phosphatase Non-receptor Type 4 (PTPN4) (AID 2283208)
# Summary of the method: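 Cell-free assay of PTPN4 expressed in Sf9 cells, using a fluorescent substrate with product separated by mobility shift; read 1.33 h after dosing. Single-point screen at 25 uM, then concentration-response up to 50 uM. Loss of signal relative to DMSO.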
# [4] = target: human Protein Tyrosine Phosphatase Receptor Type F (PTPRF), PTPRF (gene 5792) (UniProt P10586); test: NVS_ENZ_hPTPRF: NovaScreen (NVS) Enzymatic Assay for human Protein Tyrosine Phosphatase Receptor Type F (PTPRF) (AID 2283213)
# Summary of the method: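 Cell-free fluorescence enzyme assay with recombinant protein and substrate; product separated by electrophoretic mobility shift. Read 1 h after dosing, single 25 uM duplicate screen, then concentration-response up to 50 uM; loss of signal vs DMSO.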
# [5] = target: human SRC Proto-Oncogene, Non-receptor Tyrosine Kinase (SRC), SRC (gene 6714) (UniProt P12931); test: NVS_ENZ_hSRC: NovaScreen (NVS) Enzymatic Assay for human SRC Proto-Oncogene, Non-receptor Tyrosine Kinase (SRC) (AID 2283223)
# Summary of the method: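 Cell-free kinase activity assay with fluorescent substrate, product separated by electrophoretic mobility shift, read 1 h after dosing. Duplicate single point at 25 uM, then concentration-response up to 50 uM; loss of signal versus DMSO.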
# [6] = Tanguay_ZF_120hpf_PFIN_legacy: (Legacy) Oregon State University Tanguay Lab 120 Hour Post-fertilization zebrafish Assay for Pectoral Fin Malformation (AID 2283648);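 note: each larva judged yes or no for fin defect by brightfield with dead larvae skipped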
# Summary of the method: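 Tropical 5D wild-type embryos, dechorionated with pronase at 4 hpf, were placed singly in wells at 6 hpf and statically exposed until 120 hpf at 28C, sealed and dark, with 0.64% (vol/vol) final DMSO; pectoral fin malformation scored present/absent.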
# [7] = CCTE_Shafer_MEA_acute_LDH: CCTE's Lactate Dehydrogenase Assay for Cytotoxicity in the Neural Acute Assay, Shafer Lab (AID 2284086);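 note: active means LDH release rises above DMSO vehicle level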
# Summary of the method: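 Rat cortical neurons cultured on microelectrode arrays; baseline 40-min recording, compound added, second 40-min recording; medium then sampled for released LDH (colorimetric kit, 490 nm). DMSO = negative control.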
# [8] = Tanguay_ZF_120hpf_OTIC_legacy: (Legacy) Oregon State University Tanguay Lab 120 Hour Post-fertilization zebrafish Assay for Otic Vesicle Malformation (AID 2283639)
# Summary of the method: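 Embryos from 5D wild-type adults exposed in plates; DMSO 0.64% v/v final. Sealed, light-protected, 28C, static to 120 hpf. Otic vesicle malformation recorded as binary endpoint; gain-of-signal fitted vs DMSO.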
# AR (gene 367) = AR (gene 367) (UniProt P10275); test: ACEA_AR_antagonist_80hr: ACEA Biosciences xCELLigence Real-Time Cell Analysis on Androgen Receptor Antagonism for Proliferation (AID 2283787);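 note: 22Rv1 human prostate cancer cells with growth followed by electrical impedance; hits lower the impedance growth signal relative to DMSO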
# Summary of the method: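 Impedance readout (RT-CES), 80 h post-dose; loss-of-signal vs DMSO baseline. 22Rv1 cells in assay medium. Compounds: 8-pt 1:4 series, max 100 uM final, up to 0.5% DMSO; n = 2.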
# [9] = NVS_IC_rCaBTZCHL: NovaScreen (NVS) Ion Channel Assay for Calcium Channel, Type L, Benzothiazepine Site (CaBTZCHL) (AID 2283337)
# Summary of the method: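 Scintillation counting of filter-bound radioligand gave the read-out, with reduced binding versus DMSO scored as activity. Membranes came from rat cortex and were read 1.5 h after compound addition. Chemicals were screened first in duplicate at 25 uM.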
# [10] = Tanguay_ZF_120hpf_EYE_legacy: (Legacy) Oregon State University Tanguay Lab 120 Hour Post-fertilization zebrafish Assay for Eye Malformation (AID 2283636);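 note: binary presence or absence of eye malformation scored by brightfield in 120 hpf larvae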
# Summary of the method: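 Dechorionated wild-type Tropical 5D zebrafish embryos were exposed statically from 6 hpf, one per well, to 120 hpf at 28C in sealed, foil-covered plates with 0.64% DMSO. Eye malformation was scored present/absent by brightfield microscopy against DMSO controls.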
# [11] = target: human FYN Proto-Oncogene, Src family Tyrosine Kinase (Fyn), FYN (gene 2534) (UniProt P06241); test: NVS_ENZ_hFyn: NovaScreen (NVS) Enzymatic Assay for human FYN Proto-Oncogene, Src family Tyrosine Kinase (Fyn) (AID 2283161)
# Summary of the method: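 Recombinant enzyme with fluorescent substrate, product separated by electrophoretic mobility shift; read 1 h after dosing. Duplicate 25 uM single-point screen, actives retested in concentration series; loss of signal vs DMSO.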
# [12] = target: human Phosphoinositide 3-kinase alpha (PI3Ka), PIK3CA (gene 5290) (UniProt P42336); test: NVS_ENZ_hPI3Ka: NovaScreen (NVS) Enzymatic Assay for human Phosphoinositide 3-kinase alpha (PI3Ka) (AID 2283196)
# Summary of the method: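 Enzyme activity as fluorescence after mobility-shift separation of substrate and product, 1 h reaction, recombinant human PI3Kα; concentration-response to 50 uM max for chemicals passing a 25 uM duplicate screen.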
# [13] = target: Estrogen receptor (Homo sapiens) (UniProt P03372); test: OT_ER_ERaERa_0480: Odyssey Thera (OT) 8-hour HEK293T Protein-Complementation Assay for Estrogen Receptor-alpha/-alpha Homodimer (AID 2283351);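 note: rise in fluorescence from reassembled reporter fragments on ERα LBD homodimer in nucleus or whole cell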
# Summary of the method: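 HEK293T, stable ERα LBD (aa 310-547) PCA homodimer; 8 h compound exposure; fluorescence intensity, laser scanning cytometer; positive fitting direction, DMSO baseline.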
# [14] = target: Estrogen receptor (Homo sapiens) (UniProt P03372); test: CCTE_Deisenroth_AIME_384WELL_LUC_Active: CCTE's 384-well Estrogen Receptor Transactivation Assay with AIME metabolic competence (ERTA luciferase; metabolism positive), Deisenroth Lab (AID 2284030)
# Summary of the method: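 Estrogenic luciferase signal in VM7Luc4E2 cells is measured at 24 hour, after chemicals have been preconditioned 2 hours with PB/BNF-induced rat hepatic S9 in alginate. Gain of signal is fitted relative to 17beta-estradiol, across 0.002 - 200 uM.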
# [15] = ATG_Hpa5_TRANS: Attagene TRANS-FACTORIAL HepG2 Assay for human GAL4-Hpa5 Hepatocyte Transcription Factor Basal Promoter (AID 2282975); conditions: HepG2 Attagene GAL4-Hpa5 transcription reporter;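 note: hits are increases in reporter mRNA over DMSO baseline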
# Summary of the method: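 Basal-promoter GAL4 background control within the HepG2 trans-factorial panel of transiently transfected reporter units. Reporter mRNA is measured 24 h after dosing by RT-PCR and capillary electrophoresis, fitted for gain of signal versus DMSO.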
# [16] = read-out: xenobiotic metabolism (CYP2C9), CYP2C9 (gene 1559); test: CLD_CYP2C9_6hr: CellzDirect (CLD) Gene Expression Assay for xenobiotic metabolism (CYP2C9) at 6 hours (AID 2283664)
# Summary of the method: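 Primary human hepatocytes dosed daily with test chemicals at multiple concentrations; harvested at 6 h. CYP2C9 mRNA induction measured by qNPA chemiluminescence. Gain of signal fitted against 0.2% DMSO vehicle; cytotoxicity annotated from phase-contrast morphology.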
# [17] = CLD_ACTIN_24hr: CellzDirect (CLD) Gene Expression Assay for Baseline Control (Actin) at 24 hours (AID 2283670)
# Summary of the method: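 Primary human hepatocytes dosed over multiple concentrations with 0.2% DMSO vehicle; actin mRNA measured at 24 h by qNPA chemiluminescence. Background control endpoint, fitted as gain of signal versus DMSO.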
# [18] = read-out: Cytochrome P450 2C19 (Homo sapiens) (UniProt P33261); test: CLD_CYP2C19_24hr: CellzDirect (CLD) Gene Expression Assay for xenobiotic metabolism (CYP2C19) at 24 hours (AID 2283687)
# Summary of the method: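 Primary human hepatocytes (two donor preparations) dosed daily with fresh test chemical in 0.2% DMSO vehicle; CYP2C19 mRNA induction measured at 24 h by quantitative nuclease protection assay with chemiluminescence, fitted for gain of signal versus DMSO.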
smiles,measurement,setting,value
Cc1ncc([C@@H](CCCCCCc2ccc3c(n2)NCCC3)CC(=O)O)cn1,AC50,[1],inconclusive: 0.0784 µM
same,outcome,[2],inactive
same,AC50,[3],inconclusive: 0.0688 µM
same,outcome,[4],inactive
same,AC50,[5],inconclusive: 25 µM
same,AC50,[6],inconclusive: 39.1 µM
same,AC50,[7],inconclusive: 20 µM
COc1cc2c(c(OC)c1OC)-c1ccc(OC)c(=O)cc1[C@@H](NC(C)=O)CC2,outcome,[1],inactive
same,AC50,[8],active: 25 µM
same,AC50,[6],active: 21 µM
same,AC50,AR (gene 367),active: 0.00409 µM
same,AC50,[7],inconclusive: 20 µM
CC=C(C)C(C)=O,AC50,[9],inconclusive: 25 µM
COC(=O)CCCCC(=O)OC,outcome,[10],inactive
NCCO,outcome,[11],inactive
same,AC50,[1],inconclusive: 25 µM
same,AC50,[2],inconclusive: 0.08 µM
same,AC50,[12],inconclusive: 25 µM
same,AC50,[3],inconclusive: 25 µM
same,AC50,[4],inconclusive: 25 µM
same,outcome,[5],inactive
same,outcome,[13],inactive
same,AC50,[8],inconclusive: 202 µM
CN1C(=O)N(c2ccccc2Br)Cc2cnc(Nc3ccc4c(c3)OCC(CO)O4)nc21 (stereo unspecified),outcome,[2],inactive
same,AC50,[5],active: 0.00229 µM
same,AC50,[10],active: 3.44 µM
C/C=C/C=C/CCCCCCCO,outcome,[14],inactive
Nc1cccc(N)n1,outcome,[7],inactive
CCCCCCCCCC[N+](C)(CCCCCCCCCC)CCC[Si](OC)(OC)OC,outcome,[13],inactive
COC(=O)c1cccc(C)c1S(=O)(=O)NC(=O)Nc1nc(OCC(F)(F)F)nc(N(C)C)n1,outcome,[15],inactive
same,AC50,[16],inconclusive: 20 µM
same,AC50,[17],inconclusive: 0.0652 µM
same,AC50,[18],inconclusive: 20 µM
CCCCCCCC=O,outcome,[6],inactive
same,AC50,[14],active: 27.9 µM
CC[C@H](C)C(=O)O[C@H]1C[C@H](O)C=C2C=C[C@H](C)[C@H](CC[C@@H](O)C[C@@H](O)CC(=O)O)[C@H]21,outcome,[8],inactive
same,AC50,[7],inconclusive: 10 µM
CC1(C)C(=O)N(Cl)C(=O)N1Cl,AC50,[13],inconclusive: 50 µM
same,AC50,[10],inconclusive: 1.72 µM
CCCCCC(=O)OCC,outcome,[14],inactive
CCCO,AC50,[9],inconclusive: 0.105 µM

# A section from further up:
smiles,measurement,setting,value
NCCO,AC50,[8],inconclusive: 202 µM
CN1C(=O)N(c2ccccc2Br)Cc2cnc(Nc3ccc4c(c3)OCC(CO)O4)nc21 (stereo unspecified),outcome,[2],inactive
same,AC50,[5],active: 0.00229 µM
